Results reported in BindingDB's records for doi:10.7270/Q251433M (D3R/Abbott, 2020).

Sequences of proteins named here, by UniProt entry; tags and fusion partners are left off.
UniProt Q16539, whole entry: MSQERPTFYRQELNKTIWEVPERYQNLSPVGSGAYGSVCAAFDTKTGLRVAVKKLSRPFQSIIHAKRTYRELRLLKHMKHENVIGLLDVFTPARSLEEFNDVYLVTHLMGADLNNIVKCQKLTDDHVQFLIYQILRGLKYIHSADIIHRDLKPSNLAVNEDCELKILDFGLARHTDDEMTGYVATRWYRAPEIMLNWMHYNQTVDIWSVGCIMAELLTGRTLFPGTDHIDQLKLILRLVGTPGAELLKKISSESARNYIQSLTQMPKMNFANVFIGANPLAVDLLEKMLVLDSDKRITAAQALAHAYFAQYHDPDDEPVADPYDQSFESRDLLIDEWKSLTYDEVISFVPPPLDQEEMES

Target: Mitogen-activated protein kinase 14 (Homo sapiens, UniProt Q16539)

Structure (SMILES)	Kd [nM]
CS(=O)(=O)c1ccccc1-c1nc(-c2ccc(F)cc2)c(-c2ccncc2)[nH]1 [D3RKN_30]	50
O=C(O)c1ccc(-c2nc(-c3ccc(F)cc3)c(-c3ccncc3)[nH]2)cc1 [D3RKN_53]	1.3
